The record followed here is patent US20160177307.

Chains of the proteins cited; added tags and fusions are not shown. A line that says so, or that is headed by a name, gives the form on record, which may keep a tag or linker. Residues count along the entry.
UniProt P01127, 82-190: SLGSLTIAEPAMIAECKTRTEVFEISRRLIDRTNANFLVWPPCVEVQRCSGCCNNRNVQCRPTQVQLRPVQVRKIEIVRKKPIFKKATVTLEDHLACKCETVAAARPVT
VEGF-164 (Rattus norvegicus), one chain, as listed by the source: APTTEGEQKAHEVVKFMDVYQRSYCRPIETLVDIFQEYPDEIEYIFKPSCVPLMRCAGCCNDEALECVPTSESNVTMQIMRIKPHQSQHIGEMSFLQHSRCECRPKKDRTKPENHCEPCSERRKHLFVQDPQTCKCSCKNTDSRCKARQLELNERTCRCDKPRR
VEGF-165 (Homo sapiens), one chain, as listed by the source: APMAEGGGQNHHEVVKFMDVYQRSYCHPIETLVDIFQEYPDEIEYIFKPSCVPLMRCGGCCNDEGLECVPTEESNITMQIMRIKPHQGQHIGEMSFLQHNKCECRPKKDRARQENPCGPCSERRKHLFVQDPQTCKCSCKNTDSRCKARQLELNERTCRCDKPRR
VEGF-121 (Homo sapiens), one chain, as listed by the source: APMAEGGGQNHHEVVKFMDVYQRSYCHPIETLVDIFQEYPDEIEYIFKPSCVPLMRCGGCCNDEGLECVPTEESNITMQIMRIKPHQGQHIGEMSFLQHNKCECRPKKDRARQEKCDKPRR

Series [1] concerns VEGF-121 (Homo sapiens). Kind of series: competition with a labelled probe. The conditions noted are these: Nap-dU, 2'-OMe, VEGF isoform not given, purified recombinant protein, protein details: R&D Systems, single-stranded DNA.
For series [2], the system named is VEGF-121 (Homo sapiens). Kind of series: filter binding. As to conditions: purified recombinant protein, protein details: R&D Systems, single-stranded DNA.
The subject of a further series is VEGF-165 (Homo sapiens). The series can be described thus: filter binding. The conditions noted are these: purified recombinant protein, single-stranded DNA.
The subject of series [3] is VEGF-164 (Rattus norvegicus). The series can be described thus: filter binding. The conditions noted are these: P=Nap-dU; NB up to 100 nM; purified recombinant protein; single-stranded DNA.
Series [4] addresses PDGF-BB (platelet-derived growth factor BB) (Homo sapiens) (UniProt P01127). Kind of series: competition with a labelled probe. As to conditions: purified recombinant protein, single-stranded DNA.
Series [5] shares this target. Kind of series: filter binding. The conditions noted are these: purified recombinant protein, single-stranded DNA.
The mark [6] stands for this setting: all P are NapdU, rest DNA, NB, label: 5'-32P, variant of 4867-31_43.

For some assays here: A negative result means that nothing was seen under these conditions. For some assays here: The exact form of at least one protein or probe is not confirmed. Some results are limits rather than exact numbers.

Broadly, the Ki is the dissociation constant of the complex between target and ligand, obtained from inhibition or displacement. Usually Kd stands for the constant that tells how readily two partners part at equilibrium.

With “CCGTTCAAGTGCTTGTAGGATTTAAATGGGGTAAATTTAGGATGTTCGTGAACTTGCC [4867-31_404]”, the Ki in the series with VEGF-121 (Homo sapiens) [1] (3'-3' dimer, 6 Heg) is 0.033 nM. On to TTACGTTACACGCGTTTATAGCG [4149-8_273], for which the Kd in the series with VEGF-121 (Homo sapiens) [2] (Bn-dU, Heg linker, 2'-OMe A3, A11, A19, A21, G24, limit value) is over 1000 nM; with VEGF-165 (Homo sapiens) (Bn-dU, Heg linker, 2'-OMe A3, A11, A19, A21, G24, VEGF, limit value) it was over 1000 nM. Turning to CAGCCGTTCAAGTGCTTGTAGGATTT [4867-31_50], the Kd in the series on VEGF-121 (Homo sapiens) [2] (P=Nap-dU, NB up to 100 nM) is over 100 nM; in the series with VEGF-165 (Homo sapiens) (P=Nap-dU, NB up to 100 nM) it was over 100 nM; in series [3], over 100 nM. Turning to “CGACAGCATGTATGCACATCTCGACAGCATGTATGCACATCT [5169-4_140]”, in series [4] (Nap-dU, head-to-tail dimer, 6 Heg), the Ki amounted to 0.0036 nM. Take “CCGTTCAAGTGCTTGTAGGATTTAAATGGGGTAAATTTAGGATGTTCGTGAACTTGCC [4867-31_403]”: in the series with VEGF-121 (Homo sapiens) [1] (3'-3' dimer, 4 Heg), the inhibitory constant (Ki) amounted to 0.02 nM.

Take “TTACGTTACCGCGTTTATAGCGTTACGTTACCGCGTTTATAGCG [4149-8_440]”: the Ki in series [4] (Bn-dU, MBn-dU, 2'-OMe, C3, Heg, head-to-tail dimer, 2 Heg) is 0.0014 nM. For “CCGTTCAAGTGCTTGTAGGATTTAAATGGCCGTTCAAGTGCTTGTAGGATTTAAATGG [4867-31_398]”, the inhibitory constant (Ki) in the series on VEGF-121 (Homo sapiens) [1] (head-to-tail dimer, 3 Heg) was found to be 0.029 nM. Turning to “CCGTTCAAGTGCTTGTAGGATTTAAATGGCCGTTCAAGTGCTTGTAGGATTTAAATGG [4867-31_401]”, the Ki with VEGF-121 (Homo sapiens) [1] (head-to-tail dimer, 6 Heg) was 0.021 nM. With “CCGTTCAAGTGCTTGTAGGATTTAAATGGGGTAAATTTAGGATGTTCGTGAACTTGCC [4867-31_192D]”, the Ki with VEGF-121 (Homo sapiens) [1] (3'-3' dimer, no Heg) came out at 0.032 nM.

Turning to “CCGTTCAAGTGCTTGTAGGATTTAAATGGGGTAAATTTAGGATGTTCGTGAACTTGCC [4867-31_402]”, the Ki in the series with VEGF-121 (Homo sapiens) [1] (3'-3' dimer, 2 Heg) worked out at 0.027 nM. For the sequence “CGACAGCATGTATGCACATCTTCTACACGTATGTACGACAGC [5169-4_26D]”, the Ki in series [4] (Nap-dU, 3'-3' dimer, no Heg) came out at 0.011 nM. Turning to “CCGTTCAAGTGCTTGTAGGATTTAAATGGCCGTTCAAGTGCTTGTAGGATTTAAATGG [4867-31_396]”, the Ki with VEGF-121 (Homo sapiens) [1] (head-to-tail dimer, 1 Heg) was determined as 0.05 nM. As to “CGACAGCATGTATGCACATCTCGACAGCATGTATGCACATCT [5169-4_135]”, the Ki in series [4] (Nap-dU, head-to-tail dimer, 1 Heg) is 0.0093 nM. In the case of “TTACGTTACCGCGTTTATAGCGGCGATATTTGCGCCATTGCATT [4149-8_379D]”, in series [4] (Bn-dU, MBn-dU, 2'-OMe, C3, Heg, 3'-3' dimer, no Heg), the Ki stood at 0.011 nM. Regarding “TTACGTTACCGCGTTTATAGCGGCGATATTTGCGCCATTGCATT [4149-8_445]”, in series [4] (Bn-dU, MBn-dU, 2'-OMe, C3, Heg, 3'-3' dimer, 2 Heg), the Ki is 0.0011 nM.

For “CAGCCGTTCAAGTGCTTGTAGGATTTAA [4867-31_48]”, the Kd in the series on VEGF-121 (Homo sapiens) [2] (NapdU at P, NB) was over 100 nM; with VEGF-165 (Homo sapiens) (NapdU at P, NB), over 100 nM. With “CGACAGCATGTATGCACATCTTCTACACGTATGTACGACAGC [5169-4_141]”, the Ki in series [4] (Nap-dU, 3'-3' dimer, 2 Heg) amounted to 0.013 nM. Regarding TTACGTTACCGCGTTTATAGCG [4149-8_459], the Ki in series [4] (BndU, NapdU 16, 2'-OMe 3,7,12,13,18,19,21,24, PS 8,9,10,15,16,17, Heg 5, C3 11) was 0.013 nM. In the case of “TTACGTTACCGCGTTTATAGCGTTACGTTACCGCGTTTATAGCG [4149-8_444]”, in series [4] (Bn-dU, MBn-dU, 2'-OMe, C3, Heg, head-to-tail dimer, 6 Heg), the Ki turned out to be 0.00061 nM. With “TTACGTTACCGCGTTTATAGCGTTACGTTACCGCGTTTATAGCG [4149-8_439]”, the Ki in series [4] (Bn-dU, MBn-dU, 2'-OMe, C3, Heg, head-to-tail dimer, 1 Heg) came out at 0.0035 nM. On to “TTACGTTACCGCGTTTATAGCGGCGATATTTGCGCCATTGCATT [4149-8_446]”, for which, in series [4] (Bn-dU, MBn-dU, 2'-OMe, C3, Heg, 3'-3' dimer, 4 Heg), the Ki amounted to 0.00061 nM.

Consider “CGACAGCATGTATGCACATCTCGACAGCATGTATGCACATCT [5169-4_138]”, for which the Ki in series [4] (Nap-dU, head-to-tail dimer, 4 Heg) was found to be 0.0049 nM. Regarding “CGACAGCATGTATGCACATCTTCTACACGTATGTACGACAGC [5169-4_143]”, in series [4] (Nap-dU, 3'-3' dimer, 6 Heg), the Ki was 0.002 nM.

On to “CCGTTCAAGTGCTTGTAGGATTTAAATGGCCGTTCAAGTGCTTGTAGGATTTAAATGG [4867-31_400]”, for which the Ki in the series with VEGF-121 (Homo sapiens) [1] (head-to-tail dimer, 5 Heg) turned out to be 0.014 nM. Consider “CCGTTCAAGTGCTTGTAGGATTTAAATGGCCGTTCAAGTGCTTGTAGGATTTAAATGG [4867-31_397]”, for which, in the series with VEGF-121 (Homo sapiens) [1] (head-to-tail dimer, 2 Heg), the Ki worked out at 0.043 nM. Turning to “CGACAGCATGTATGCACATCTCGACAGCATGTATGCACATCT [5169-4_136]”, the Ki in series [4] (Nap-dU, head-to-tail dimer, 2 Heg) was determined as 0.0087 nM. On to “CCGTTCAAGTGCTTGTAGGATTTAAATGGCCGTTCAAGTGCTTGTAGGATTTAAATGG [4867-31_399]”, for which the inhibition constant (Ki) with VEGF-121 (Homo sapiens) [1] (head-to-tail dimer, 4 Heg) is 0.022 nM.

On to “TTACGTTACCGCGTTTATAGCGTTACGTTACCGCGTTTATAGCG [4149-8_441]”, for which, in series [4] (Bn-dU, MBn-dU, 2'-OMe, C3, Heg, head-to-tail dimer, 3 Heg), the Ki is 0.00078 nM. In the case of “TTACGACTACGTTACACGCGTTTATAGC [4149-8_39]”, the Kd in the series on VEGF-121 (Homo sapiens) [2] (Bn-dU, limit value) was over 1000 nM; with VEGF-165 (Homo sapiens) (Bn-dU, VEGF, limit value) it was over 1000 nM. Turning to “TTACGTTACCGCGTTTATAGCGGCGATATTTGCGCCATTGCATT [4149-8_447]”, the Ki in series [4] (Bn-dU, MBn-dU, 2'-OMe, C3, Heg, 3'-3' dimer, 6 Heg) came out at 0.00088 nM. With TTACGTTACACGCGTTTATAGCG [4149-8_130], the Kd in the series on VEGF-165 (Homo sapiens) (Bn-dU, Heg linker, 2'-OMe A3, A11, A21, G24, VEGF, limit value) was over 1000 nM. As for CGACAGCAGTATGCACATCT [5169-4_67], the Kd in series [5] (C3 spacer at 9, NapdU at 11,13,19,21, NB up to 100 nM, label: 5'-32P, variant of 5169-4_26) was over 100 nM. Take CGCAGCATGTATGCACATCT [5169-4_61]: the Kd in series [5] (C3 spacer at 3, NapdU at 9,11,13,19,21, NB up to 100 nM, label: 5'-32P, variant of 5169-4_26) is over 100 nM.

As to CGACAGCATGTAGCACATCT [5169-4_71], the Kd in series [5] (NapdU at P, C3 spacer at 13, NB) was over 100 nM. Turning to “CGACAGCATGTATGCACATCTTCTACACGTATGTACGACAGC [5169-4_142]”, in series [4] (Nap-dU, 3'-3' dimer, 4 Heg), the Ki was 0.0055 nM.

“CGACAGCATGTATGCACATCTCGACAGCATGTATGCACATCT [5169-4_139]”: the Ki in series [4] (Nap-dU, head-to-tail dimer, 5 Heg) turned out to be 0.0036 nM. On to “AGCCGTTCAAGTGCTTGTAGGATTTAAAT [4867-31_53]”, for which the dissociation constant Kd in series [3] was over 100 nM. With “CGACAGCATGTATGCACATCTCGACAGCATGTATGCACATCT [5169-4_137]”, the Ki in series [4] (Nap-dU, head-to-tail dimer, 3 Heg) was found to be 0.0051 nM. For the sequence “TTACGTTACCGCGTTTATAGCGTTACGTTACCGCGTTTATAGCG [4149-8_438]”, the Ki in series [4] (Bn-dU, MBn-dU, 2'-OMe, C3, Heg as printed, head-to-tail dimer, no linker, SB18T, 37 C) stood at 0.0042 nM. In the case of “CAGCCGTTCAAGTGCTTGTAGGATTTAAA [4867-31_47]”, the binding result in the series with VEGF-121 (Homo sapiens) [2] (setting [6]) and in the series with VEGF-165 (Homo sapiens) (setting [6]) was “no binding” each time. In the case of CGACAGCATGTATGCACATCT [5169-4_91], in series [5] (all positions 2'-OMe, Nap-mU at 9,11,13,19,21, NB, no binding up to 3.2 nM, label: 5'-32P, variant of 5169-4_26), the Kd was over 3.2 nM.

As to CGACAGCATGTATGCACATCT [5169-4_119], the Kd in series [5] (NapdU at P, 2'-OMe 2,4,17 as printed, NB, printed sequence same as 5169-4_118) is over 3.2 nM. For “TTACGTTACCGCGTTTATAGCGTTACGTTACCGCGTTTATAGCG [4149-8_442]”, in series [4] (Bn-dU, MBn-dU, 2'-OMe, C3, Heg, head-to-tail dimer, 4 Heg), the Ki worked out at 0.00051 nM.

On to TTACGACTACGTTACACGCGTTTATA [4149-8_41], for which the Kd in series [5] (BndU at 1,2,8,12,13,21,22,23,25, rest DNA, SB18T, 37 C, label: 5'-32P, variant of 4149-8_38) was over 1000 nM.
